# According to the supplement of paper PMC4635364:
# Counter-ions that a name gives are not always drawn. The list shows a part of the results. This data set is noisy: repeats of one test often differ as much as different tests do.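 Human fetal ventral-midbrain neural progenitor line ReNCell VM, differentiated without mitogens. Images stained for doublecortin (early neurons) or tyrosine hydroxylase (dopaminergic neurons) were scored by blinded raters against untreated wells (0 = no change). Repeats and both raters were averaged, and compounds averaging 2 or higher were picked as hits for retesting.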
# Experiments:
# ReNCell VM [1] = experiment: neuronal differentiation score (DCX+ cell fraction vs untreated, manual image score) (score (-3 to 3)); higher = more neuronal differentiation; settings: 2 uM, 2 weeks
# ReNCell VM [2] = experiment: dopaminergic neuron differentiation score (TH+ cell fraction vs untreated, manual image score) (score (0 to 3)); higher = more TH+ dopaminergic neuron differentiation; settings: 2 uM, 4 weeks, BDNF 10 ng/ml + GDNF 10 ng/ml
smiles,measurement,setting,value
Nc1ccc(S(=O)(=O)Nc2ccnn2-c2ccccc2)cc1 [Sulfaphenazole],neuronal differentiation score,ReNCell VM [1]; library: LOPAC,inactive: 0
same,neuronal differentiation score,ReNCell VM [1]; library: Prestwick,inactive: 0
same,dopaminergic neuron differentiation score,ReNCell VM [2]; library: LOPAC,inactive: 0
same,dopaminergic neuron differentiation score,ReNCell VM [2]; library: Prestwick,inactive: 0
"COC(=O)[C@@H](N)Cc1ccc(O)c(O)c1 [L-3,4-Dihydroxyphenylalanine methyl ester hydrochloride]",neuronal differentiation score,ReNCell VM [1]; library: LOPAC,inactive: 0
same,dopaminergic neuron differentiation score,ReNCell VM [2]; library: LOPAC,inactive: 0
C[N+](C)(C)CC(=O)O [Betaine hydrochloride],neuronal differentiation score,ReNCell VM [1]; library: LOPAC,inactive: 0
same,dopaminergic neuron differentiation score,ReNCell VM [2]; library: LOPAC,inactive: 0
COc1c2ccoc2cc2oc(C)cc(=O)c12 [visnagin],neuronal differentiation score,ReNCell VM [1]; library: Natural,inactive: 0
same,dopaminergic neuron differentiation score,ReNCell VM [2]; library: Natural,inactive: 0
O=C1C[C@@H](c2ccccc2)Oc2cc(O)cc(O)c21 [Pinocembrine],neuronal differentiation score,ReNCell VM [1]; library: Phytochemical,inactive: 0
same,dopaminergic neuron differentiation score,ReNCell VM [2]; library: Phytochemical,inactive: 0
COc1cc(C(=O)OCCCN2CCCN(CCCOC(=O)c3cc(OC)c(OC)c(OC)c3)CC2)cc(OC)c1OC,neuronal differentiation score,ReNCell VM [1]; library: Spectrum,inactive: -1
same,dopaminergic neuron differentiation score,ReNCell VM [2]; library: Spectrum,inactive: 0
O=C(O)C(Oc1ccc2ccc(=O)oc2c1)c1ccccc1 (centres undefined) [(2-oxo-2h-chromen-7-yloxy)-phenyl-acetic acid],neuronal differentiation score,ReNCell VM [1]; library: Natural,inactive: 0
same,dopaminergic neuron differentiation score,ReNCell VM [2]; library: Natural,inactive: 0
Cn1cnnc1Sc1c([N+](=O)[O-])ncn1C,neuronal differentiation score,ReNCell VM [1]; library: Tocriscreen,inactive: 0
same,dopaminergic neuron differentiation score,ReNCell VM [2]; library: Tocriscreen,inactive: 0
O=C1CC2(CCCC2)CC(=O)N1CCCCN1CCN(c2ncccn2)CC1,neuronal differentiation score,ReNCell VM [1]; library: Spectrum,inactive: 0
same,dopaminergic neuron differentiation score,ReNCell VM [2]; library: Spectrum,inactive: 0
Nc1ccn([C@@H]2O[C@H](CO)[C@@H](O)[C@H]2O)c(=O)n1 [Cytidine],neuronal differentiation score,ReNCell VM [1]; library: Phytochemical,inactive: 0
same,dopaminergic neuron differentiation score,ReNCell VM [2]; library: Phytochemical,inactive: 0
NCCc1ccc(O)c(O)c1,neuronal differentiation score,ReNCell VM [1]; library: Spectrum,inactive: 0
same,dopaminergic neuron differentiation score,ReNCell VM [2]; library: Spectrum,inactive: 0
"c1ccc(CN2CCC3(CCc4ccccc43)CC2)cc1 [L-693,403 maleate]",neuronal differentiation score,ReNCell VM [1]; library: Tocriscreen,inactive: 0
same,dopaminergic neuron differentiation score,ReNCell VM [2]; library: Tocriscreen,inactive: 0
Cc1cc(=O)oc2cc(O)ccc12 [Hymecromone],neuronal differentiation score,ReNCell VM [1]; library: Prestwick,inactive: 0
same,dopaminergic neuron differentiation score,ReNCell VM [2]; library: Prestwick,inactive: 0
O=C(O)CN(CC(=O)O)Cc1cc2c(cc1O)Oc1cc(O)c(CN(CC(=O)O)CC(=O)O)cc1C21OC(=O)c2ccccc21,neuronal differentiation score,ReNCell VM [1]; library: Spectrum,inactive: 0
same,dopaminergic neuron differentiation score,ReNCell VM [2]; library: Spectrum,inactive: 0
CCC(NC(C)C)C(O)c1ccc(O)c(O)c1 (centres undefined),neuronal differentiation score,ReNCell VM [1]; library: Spectrum,inactive: 0
same,dopaminergic neuron differentiation score,ReNCell VM [2]; library: Spectrum,inactive: 0
C=C[C@H]1CN2CC[C@H]1C[C@@H]2[C@@H](O)c1ccnc2ccc(OC)cc12 [Quinidine sulfate],neuronal differentiation score,ReNCell VM [1]; library: LOPAC,inactive: 0
same,dopaminergic neuron differentiation score,ReNCell VM [2]; library: LOPAC,inactive: 0
CN[C@H](CC(C)C)C(=O)N[C@H]1C(=O)N[C@@H](CC(N)=O)C(=O)N[C@H]2C(=O)N[C@H]3C(=O)N[C@H](C(=O)N[C@H](C(=O)O)c4cc(O)cc(O)c4-c4cc3ccc4O)[C@H](O)c3ccc(c(Cl)c3)Oc3cc2cc(c3O[C@@H]2O[C@H](CO)[C@@H](O)[C@H](O)[C@H]2O[C@H]2C[C@](C)(N)[C@H](O)[C@H](C)O2)Oc2ccc(cc2Cl)[C@H]1O,neuronal differentiation score,ReNCell VM [1]; library: Spectrum,inactive: 0
same,dopaminergic neuron differentiation score,ReNCell VM [2]; library: Spectrum,inactive: 0
CC(C)(C)NC[C@H](O)c1ccc(O)c(CO)c1,neuronal differentiation score,ReNCell VM [1]; library: Spectrum,inactive: 0
same,dopaminergic neuron differentiation score,ReNCell VM [2]; library: Spectrum,inactive: 0
N[C@H]1CONC1=O [(S)-(-)-Cycloserine],neuronal differentiation score,ReNCell VM [1]; library: Prestwick,inactive: 0
same,dopaminergic neuron differentiation score,ReNCell VM [2]; library: Prestwick,inactive: 1
C[C@H](Cc1ccc(O)c(O)c1)[C@@H](C)Cc1ccc(O)c(O)c1,neuronal differentiation score,ReNCell VM [1]; library: LOPAC,inactive: 0
same,dopaminergic neuron differentiation score,ReNCell VM [2]; library: LOPAC,inactive: 0
CCC(=O)c1ccc2c(c1)N(CCCN(C)C)c1ccccc1S2 [Propionylpromazine hydrochloride],neuronal differentiation score,ReNCell VM [1]; library: LOPAC,inactive: 0
same,dopaminergic neuron differentiation score,ReNCell VM [2]; library: LOPAC,inactive: 0
NS(=O)(=O)c1cc(Cl)c(Cl)c(S(N)(=O)=O)c1 [Dichlorphenamide],neuronal differentiation score,ReNCell VM [1]; library: Prestwick,inactive: 0
same,dopaminergic neuron differentiation score,ReNCell VM [2]; library: Prestwick,inactive: 0
COc1c2c(cc3c1C(c1c(O)c4ccccc4oc1=O)N(C)CC3)OCO2 (centres undefined),neuronal differentiation score,ReNCell VM [1]; library: Natural,inactive: 0
same,dopaminergic neuron differentiation score,ReNCell VM [2]; library: Natural,inactive: 0
CN1CCN(CC/C=C2/c3ccccc3Sc3ccc(S(=O)(=O)N(C)C)cc32)CC1,neuronal differentiation score,ReNCell VM [1]; library: Spectrum,inactive: 0
same,dopaminergic neuron differentiation score,ReNCell VM [2]; library: Spectrum,inactive: 1
COc1cc(CNC(=O)CCCC/C=C/C(C)C)ccc1O,neuronal differentiation score,ReNCell VM [1]; library: Spectrum,inactive: 0
same,dopaminergic neuron differentiation score,ReNCell VM [2]; library: Spectrum,inactive: 0
CCOC(=O)[C@H](CCc1ccccc1)N[C@@H](C)C(=O)N1Cc2ccccc2C[C@H]1C(=O)O [Quinapril HCl],neuronal differentiation score,ReNCell VM [1]; library: Prestwick,inactive: 0
same,dopaminergic neuron differentiation score,ReNCell VM [2]; library: Prestwick,inactive: 0
Cc1ccc(C(=O)C(C)CN2CCCCC2)cc1 (centres undefined),neuronal differentiation score,ReNCell VM [1]; library: Spectrum,inactive: 1
same,dopaminergic neuron differentiation score,ReNCell VM [2]; library: Spectrum,inactive: 0
CN(C)CCCC1(c2ccc(F)cc2)OCc2cc(C#N)ccc21 (centres undefined),neuronal differentiation score,ReNCell VM [1]; library: Spectrum,inactive: -1
same,dopaminergic neuron differentiation score,ReNCell VM [2]; library: Spectrum,inactive: 0
NC[C@@H]1O[C@@H](O[C@H]2[C@H](O)[C@@H](O[C@H]3O[C@H](CO)[C@@H](O)[C@H](N)[C@H]3O)[C@H](N)C[C@@H]2N)[C@@H](O)[C@H](O)[C@H]1O,neuronal differentiation score,ReNCell VM [1]; library: Spectrum,inactive: 0
same,dopaminergic neuron differentiation score,ReNCell VM [2]; library: Spectrum,inactive: 0
CNC(=O)c1cc2c(cn1)[nH]c1ccccc12,neuronal differentiation score,ReNCell VM [1]; library: Tocriscreen,inactive: 0
same,dopaminergic neuron differentiation score,ReNCell VM [2]; library: Tocriscreen,inactive: 0
O=S(=O)(c1cccc2c(Cl)cccc12)N1CCCNCC1 [ML 9 hydrochloride],neuronal differentiation score,ReNCell VM [1]; library: Tocriscreen,inactive: 0
same,dopaminergic neuron differentiation score,ReNCell VM [2]; library: Tocriscreen,inactive: 0

# Reformatted: entries from further up
smiles	measurement	setting	value
O=C1C[C@@H](c2ccccc2)Oc2cc(O)cc(O)c21 [Pinocembrine]	dopaminergic neuron differentiation score	ReNCell VM [2]; library: Phytochemical	inactive: 0
O=C1CC2(CCCC2)CC(=O)N1CCCCN1CCN(c2ncccn2)CC1	dopaminergic neuron differentiation score	ReNCell VM [2]; library: Spectrum	inactive: 0
CCC(=O)c1ccc2c(c1)N(CCCN(C)C)c1ccccc1S2 [Propionylpromazine hydrochloride]	neuronal differentiation score	ReNCell VM [1]; library: LOPAC	inactive: 0
CCOC(=O)[C@H](CCc1ccccc1)N[C@@H](C)C(=O)N1Cc2ccccc2C[C@H]1C(=O)O [Quinapril HCl]	neuronal differentiation score	ReNCell VM [1]; library: Prestwick	inactive: 0
